Test results taken from article PMC11612967.
Results are given in words; binding and its absence hold for the method and conditions named. A result given as binding can be weak or reduced; the word gives no strength. For some assays here: In cells and extracts the contact can be indirect. Values belong to the molecule of their own block, whether it stands above or below them.

Experiments:
[1] = molecular target: T1, H. sapiens Nse1 (H. sapiens) (UniProt Q8WV22); experiment: pull-down; H. sapiens Smc5/6 subunits co-expressed in transfected HEK293 cells (10-ml scale), one subunit tagged (N- or C-terminal); lysis buffer with Benzonase and protease inhibitors, processed as for the small-scale expression in E. coli; Coomassie-stained SDS-PAGE
T1 sequence: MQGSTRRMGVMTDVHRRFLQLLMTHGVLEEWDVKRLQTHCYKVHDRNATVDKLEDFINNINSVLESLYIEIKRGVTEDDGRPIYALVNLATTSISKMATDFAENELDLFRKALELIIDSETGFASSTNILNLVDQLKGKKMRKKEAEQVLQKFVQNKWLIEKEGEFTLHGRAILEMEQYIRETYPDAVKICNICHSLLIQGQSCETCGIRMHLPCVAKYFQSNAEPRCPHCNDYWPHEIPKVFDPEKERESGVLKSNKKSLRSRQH

[2] = molecular target: T2, H. sapiens Nse2 (H. sapiens) (UniProt Q96MF7); experiment: as above
T2 sequence: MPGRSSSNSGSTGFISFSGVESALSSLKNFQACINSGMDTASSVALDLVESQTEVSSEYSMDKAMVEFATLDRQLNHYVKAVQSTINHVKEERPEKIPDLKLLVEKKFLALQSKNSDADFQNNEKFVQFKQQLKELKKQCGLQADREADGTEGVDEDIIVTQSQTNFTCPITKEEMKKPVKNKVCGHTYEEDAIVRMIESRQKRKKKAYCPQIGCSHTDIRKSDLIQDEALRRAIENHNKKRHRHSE

[3] = molecular target: T3, H. sapiens Nse3 (H. sapiens) (UniProt Q96MG7); experiment: as above
T3 sequence: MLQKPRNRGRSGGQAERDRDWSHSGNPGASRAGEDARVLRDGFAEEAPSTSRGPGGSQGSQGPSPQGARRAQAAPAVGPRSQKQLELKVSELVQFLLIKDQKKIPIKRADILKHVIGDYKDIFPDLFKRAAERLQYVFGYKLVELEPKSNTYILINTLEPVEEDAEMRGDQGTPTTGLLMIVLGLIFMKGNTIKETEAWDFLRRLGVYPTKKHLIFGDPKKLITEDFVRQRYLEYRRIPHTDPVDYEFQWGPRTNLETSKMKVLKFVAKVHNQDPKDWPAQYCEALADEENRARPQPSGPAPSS

[4] = molecular target: T4, H. sapiens Smc6 (H. sapiens) (UniProt Q96SB8); experiment: as above
T4 sequence: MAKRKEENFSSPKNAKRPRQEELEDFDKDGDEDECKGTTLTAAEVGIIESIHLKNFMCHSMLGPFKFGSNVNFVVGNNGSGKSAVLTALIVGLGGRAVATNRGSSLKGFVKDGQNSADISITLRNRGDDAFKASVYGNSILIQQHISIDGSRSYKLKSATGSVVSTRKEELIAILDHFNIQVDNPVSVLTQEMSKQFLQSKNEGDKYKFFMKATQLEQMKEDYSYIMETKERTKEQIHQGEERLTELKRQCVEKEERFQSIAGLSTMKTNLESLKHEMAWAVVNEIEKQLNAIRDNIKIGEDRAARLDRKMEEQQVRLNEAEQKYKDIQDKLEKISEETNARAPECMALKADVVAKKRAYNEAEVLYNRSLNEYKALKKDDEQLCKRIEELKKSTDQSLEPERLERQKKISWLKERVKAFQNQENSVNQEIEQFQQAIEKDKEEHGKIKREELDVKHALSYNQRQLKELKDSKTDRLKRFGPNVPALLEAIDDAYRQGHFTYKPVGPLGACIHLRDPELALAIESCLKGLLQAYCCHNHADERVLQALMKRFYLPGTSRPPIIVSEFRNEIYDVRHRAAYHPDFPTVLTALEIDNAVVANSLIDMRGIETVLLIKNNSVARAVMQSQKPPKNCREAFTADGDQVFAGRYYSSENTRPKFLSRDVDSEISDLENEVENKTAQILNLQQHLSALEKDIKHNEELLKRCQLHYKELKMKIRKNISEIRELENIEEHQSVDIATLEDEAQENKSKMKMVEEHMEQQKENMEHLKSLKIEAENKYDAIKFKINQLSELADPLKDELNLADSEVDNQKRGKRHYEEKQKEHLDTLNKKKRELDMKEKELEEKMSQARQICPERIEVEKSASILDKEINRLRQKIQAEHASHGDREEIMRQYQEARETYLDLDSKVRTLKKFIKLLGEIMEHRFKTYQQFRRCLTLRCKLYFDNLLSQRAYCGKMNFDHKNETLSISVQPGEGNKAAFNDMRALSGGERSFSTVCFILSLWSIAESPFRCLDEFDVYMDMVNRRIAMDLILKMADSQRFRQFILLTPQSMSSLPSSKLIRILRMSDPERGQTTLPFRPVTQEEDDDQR

[5] = molecular target: H. sapiens Nse4 (H. sapiens); experiment: SEC; large scale, 1 liter HEK293 culture; Nse4 with C-terminal Twin-Strep tag; StrepTrap in 50 mM Tris-HCl pH 7.5, 300 mM NaCl, 5% glycerol, then Superose 6 Increase 3.2/300; peak by SDS-PAGE and LC-MS/MS
[6] = molecular target: H. sapiens Nse4 (H. sapiens); experiment: pull-down; H. sapiens Smc5/6 subunits co-expressed in transfected HEK293 cells (10-ml scale), one subunit tagged (N- or C-terminal); lysis buffer with Benzonase and protease inhibitors, processed as for the small-scale expression in E. coli; Coomassie-stained SDS-PAGE

- binding [1]: binds
- binding [2]: binds
- binding [3]: binds
- binding [4]: binds
Molecule: H. sapiens Nse4

- binding [5]: binds
- binding [6]: binds
B2: H. sapiens Nse3 (protein, UniProt Q96MG7 1-304)
chain: T3 sequence

- binding [5]: binds
B3: H. sapiens Smc6 (protein, UniProt Q96SB8 1-1091)
chain: T4 sequence

The next lines start with the molecule.

B1: H. sapiens Nse1 (protein, UniProt Q8WV22 1-266)
chain: T1 sequence
- binding [5]: binds
- binding [6]: binds

B4: H. sapiens Nse2 (protein, UniProt Q96MF7 1-247)
chain: T2 sequence
- binding [5]: binds
- binding [6]: binds
